# Source: the supplement of paper PMC8728848
# Some of the results follow.
# B1: Protein L(A-C2) (Finegoldia magna), Q51912 (protein)
# chain: ADEPIDLEKLEEKRDKENVGNLPKFDNEVKDGSENPMAKYPDFDDEASTRFETENNEFEEKKVVSDNFFDQSEHPFVENKEETPETPETDSEEEVTIKANLIFANGSTQTAEFKGTFEKATSEAYAYADTLKKDNGEYTVDVADKGYTLNIKFAGKEKTPEEPKEEVTIKANLIYADGKTQTAEFKGTFEEATAEAYRYADALKKDNGEYTVDVADKGYTLNIKFAGKEKTPEEPKEEVTIKANLIYADGKTQTAEFKGTFEEATAEAYRYADLLAKENGKYTVDVADKGYTLNIKFAGKEKTPEEPKEEVTIKANLIYADGKTQTAEFKGTFAEATAEAYRYADLLAKENGKYTADLEDGGYTINIRFAGKKVDEKPEEKEQVTIKENIYFEDGTVQTATFKGTFAEATAEAYRYADLLSKEHGKYTADLEDGGYTINIRFAGKEEPEETPEKPEVQDGYASYEEAEAAAKEALKNDDVNKSYTIRQGADGRYYYVLSPVEAEEEKPEAQNGYATYEEAEAAAKKALENDPINKSYSIRQGADGRYYYVLSPVEAE
# Experiments:
# Assay in all cases: glycan array binding signal (z-score within array); higher = stronger binding
# Conditions in all cases: glycan notation: IUPAC condensed, linker removed
# [1] = target: Fuc(a1-2)Gal
# How it was run: (§1)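 The binding signal is a Z-score computed within each array and averaged over linkers. Arrays of the same protein sequence at different concentrations or buffers were also averaged together. Data originate from 3228 arrays in the Consortium for Functional Glycomics database, kept only where the protein sequence was available.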
# [2] = target: Fuc(a1-2)Gal(b1-3)GalNAc
# How it was run: as §1
# [3] = target: Fuc(a1-2)Gal(b1-3)GalNAc(a1-3)[Fuc(a1-2)]Gal(b1-4)Glc
# How it was run: as §1
# [4] = target: Fuc(a1-2)Gal(b1-3)GalNAc(a1-3)[Fuc(a1-2)]Gal(b1-4)GlcNAc
# How it was run: as §1
# [5] = target: Fuc(a1-2)Gal(b1-3)GalNAc(b1-3)Gal
# How it was run: as §1
# [6] = target: Fuc(a1-2)Gal(b1-3)GalNAc(b1-3)Gal(a1-4)Gal(b1-4)Glc
# How it was run: as §1
# [7] = target: Fuc(a1-2)Gal(b1-3)GalNAc(b1-4)[Neu5Ac(a2-3)]Gal(b1-4)Glc
# How it was run: as §1
# [8] = target: Fuc(a1-2)Gal(b1-3)GlcNAc
# How it was run: as §1
# [9] = target: Fuc(a1-2)Gal(b1-3)GlcNAc(b1-2)Man(a1-3)[Fuc(a1-2)Gal(b1-3)GlcNAc(b1-2)Man(a1-6)]Man(b1-4)GlcNAc(b1-4)GlcNAc
# How it was run: as §1
# [10] = target: Fuc(a1-2)Gal(b1-3)GlcNAc(b1-2)Man(a1-3)[Fuc(a1-2)Gal(b1-3)GlcNAc(b1-2)Man(a1-6)]Man(b1-4)GlcNAc(b1-4)[Fuc(a1-6)]GlcNAc
# How it was run: as §1
# [11] = target: Fuc(a1-2)Gal(b1-3)GlcNAc(b1-3)Gal(b1-4)Glc
# How it was run: as §1
# [12] = target: Fuc(a1-2)Gal(b1-3)GlcNAc(b1-3)GalNAc
# How it was run: as §1
# [13] = target: Fuc(a1-2)Gal(b1-3)GlcNAc(b1-3)[Fuc(a1-2)Gal(b1-3)GlcNAc(b1-6)]GalNAc
# How it was run: as §1
# [14] = target: Fuc(a1-2)Gal(b1-3)GlcNAc(b1-3)[Gal(b1-4)GlcNAc(b1-6)]Gal(b1-4)Glc
# How it was run: as §1
# [15] = target: Fuc(a1-2)Gal(b1-3)GlcNAc(b1-3)[Neu5Ac(a2-6)Gal(b1-4)GlcNAc(b1-6)]Gal(b1-4)Glc
# How it was run: as §1
# [16] = target: Fuc(a1-2)Gal(b1-3)GlcNAc6S
# How it was run: as §1
# [17] = target: Fuc(a1-2)Gal(b1-3)[Fuc(a1-4)]GlcNAc
# How it was run: as §1
# [18] = target: Fuc(a1-2)Gal(b1-3)[Fuc(a1-4)]GlcNAc(b1-2)Man(a1-3)[Fuc(a1-2)Gal(b1-3)[Fuc(a1-4)]GlcNAc(b1-2)Man(a1-3)]Man(b1-4)GlcNAc(b1-4)GlcNAc
# How it was run: as §1
# [19] = target: Fuc(a1-2)Gal(b1-3)[Fuc(a1-4)]GlcNAc(b1-2)Man(a1-3)[Fuc(a1-2)Gal(b1-3)[Fuc(a1-4)]GlcNAc(b1-2)Man(a1-6)]Man(b1-4)GlcNAc(b1-4)[Fuc(a1-6)]GlcNAc(b1-4)[Fuc(a1-6)]GlcNAc
# How it was run: as §1
# [20] = target: Fuc(a1-2)Gal(b1-3)[Fuc(a1-4)]GlcNAc(b1-3)[Fuc(a1-3)[Gal(b1-4)]GlcNAc(b1-6)]Gal(b1-4)Glc
# How it was run: as §1
# [21] = target: Fuc(a1-2)Gal(b1-3)[Fuc(a1-4)]GlcNAc(b1-3)[Gal(b1-4)GlcNAc(b1-6)]Gal(b1-4)Glc
# How it was run: as §1
# [22] = target: Fuc(a1-2)Gal(b1-4)Fuc(a1-3)]GlcNAc(b1-2)Man(a1-3)[Fuc(a1-2)Gal(b1-4)[Fuc(a1-3)]GlcNAc(b1-2)Man(a1-6)]Man(b1-4)GlcNAc(b1-4)GlcNAc
# How it was run: as §1
# [23] = target: Fuc(a1-2)Gal(b1-4)Glc
# How it was run: as §1
# [24] = target: Fuc(a1-2)Gal(b1-4)Glc6S
# How it was run: as §1
# [25] = target: Fuc(a1-2)Gal(b1-4)GlcNAc
# How it was run: as §1
# [26] = target: Fuc(a1-2)Gal(b1-4)GlcNAc(b1-2)Man
# How it was run: as §1
# [27] = target: Fuc(a1-2)Gal(b1-4)GlcNAc(b1-2)Man(a1-3)[Fuc(a1-2)Gal(b1-4)GlcNAc(b1-2)Man(a1-6)]Man(b1-4)GlcNAc(b1-4)GlcNAc
# How it was run: as §1
# [28] = target: Fuc(a1-2)Gal(b1-4)GlcNAc(b1-2)Man(a1-3)[Fuc(a1-2)Gal(b1-4)GlcNAc(b1-2)Man(a1-6)]Man(b1-4)GlcNAc(b1-4)[Fuc(a1-6)]GlcNAc
# How it was run: as §1
# [29] = target: Fuc(a1-2)Gal(b1-4)GlcNAc(b1-2)[Fuc(a1-2)Gal(b1-4)GlcNAc(b1-4)]Man(a1-3)[Fuc(a1-2)Gal(b1-4)GlcNAc(b1-2)Man(a1-6)]Man(b1-4)GlcNAc(b1-4)GlcNAc
# How it was run: as §1
# [30] = target: Fuc(a1-2)Gal(b1-4)GlcNAc(b1-3)Gal(b1-4)GlcNAc
# How it was run: as §1
binder,measurement,setting,value
B1,glycan array binding signal (z-score),[1],-0.528
same,glycan array binding signal (z-score),[2],-0.127
same,glycan array binding signal (z-score),[3],0.138
same,glycan array binding signal (z-score),[4],-0.969
same,glycan array binding signal (z-score),[5],-0.661
same,glycan array binding signal (z-score),[6],-0.125
same,glycan array binding signal (z-score),[7],-0.488
same,glycan array binding signal (z-score),[8],-0.907
same,glycan array binding signal (z-score),[9],1.16
same,glycan array binding signal (z-score),[10],0.295
same,glycan array binding signal (z-score),[11],-0.616
same,glycan array binding signal (z-score),[12],0.095
same,glycan array binding signal (z-score),[13],-0.197
same,glycan array binding signal (z-score),[14],-0.355
same,glycan array binding signal (z-score),[15],0.149
same,glycan array binding signal (z-score),[16],0.57
same,glycan array binding signal (z-score),[17],-1.02
same,glycan array binding signal (z-score),[18],1.58
same,glycan array binding signal (z-score),[19],0.13
same,glycan array binding signal (z-score),[20],-0.496
same,glycan array binding signal (z-score),[21],-0.773
same,glycan array binding signal (z-score),[22],2.19
same,glycan array binding signal (z-score),[23],0.513
same,glycan array binding signal (z-score),[24],-0.321
same,glycan array binding signal (z-score),[25],-0.6
same,glycan array binding signal (z-score),[26],0.144
same,glycan array binding signal (z-score),[27],0.851
same,glycan array binding signal (z-score),[28],-0.1
same,glycan array binding signal (z-score),[29],0.469
same,glycan array binding signal (z-score),[30],-0.699

# A stretch from the list above, for reference:
binder,measurement,setting,value
B1,glycan array binding signal (z-score),[23],0.513
same,glycan array binding signal (z-score),[24],-0.321
